Reference: PubChem BioAssay AID588590 (National Center for Advancing Translational Sciences (NCATS), 2011)
The campaign covered roughly 390,000 compounds. About 4,000 (1%) were called active. This list was built around the results that the source calls inconclusive (neither active nor inactive); the mix of calls is not that of the screen. Calls come from the whole dose curve; as a rule, active = well fitted inhibition curve with a large enough effect; inconclusive = small, poorly fitted or top-dose-only effect, or another doubt; inactive = no such curve, though single readings can be large or run the other way. Potencies of inconclusive entries are doubtful fits and often do not repeat.

Amino acid sequences for entries named in this document (tags omitted). A change or cut given only in a name is not applied to a line headed by its entry.
UniProt Q9UNA4: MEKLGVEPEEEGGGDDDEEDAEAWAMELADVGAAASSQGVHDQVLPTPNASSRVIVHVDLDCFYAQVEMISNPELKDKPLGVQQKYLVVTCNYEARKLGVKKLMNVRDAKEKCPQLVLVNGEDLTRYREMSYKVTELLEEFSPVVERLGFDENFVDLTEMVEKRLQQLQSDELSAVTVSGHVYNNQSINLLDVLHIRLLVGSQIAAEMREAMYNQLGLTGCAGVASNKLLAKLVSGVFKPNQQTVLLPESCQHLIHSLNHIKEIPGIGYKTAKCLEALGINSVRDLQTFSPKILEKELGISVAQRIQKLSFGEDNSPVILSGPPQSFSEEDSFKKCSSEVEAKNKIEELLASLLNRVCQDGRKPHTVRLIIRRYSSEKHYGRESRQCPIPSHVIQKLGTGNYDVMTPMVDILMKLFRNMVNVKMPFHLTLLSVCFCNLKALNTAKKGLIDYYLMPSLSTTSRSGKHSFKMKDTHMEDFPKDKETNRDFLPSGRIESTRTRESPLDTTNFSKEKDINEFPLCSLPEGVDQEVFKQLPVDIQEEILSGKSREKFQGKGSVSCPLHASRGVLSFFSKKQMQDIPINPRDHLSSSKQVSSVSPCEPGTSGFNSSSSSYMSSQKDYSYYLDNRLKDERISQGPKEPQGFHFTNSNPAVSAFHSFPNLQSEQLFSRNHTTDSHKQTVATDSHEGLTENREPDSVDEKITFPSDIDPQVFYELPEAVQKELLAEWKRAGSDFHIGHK

molecular target: DNA polymerase iota (Homo sapiens) (UniProt Q9UNA4); test: qHTS for Inhibitors of Polymerase Iota; conditions: Pol iota fluorescent replication assay, 10 min; series mostly up to 115 µM; activity, negative = inhibition: at the top concentration
How it was run: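 Fluorescent replication assay read twice, at 0 min and 10 min after adding 50 nM (final) substrate. Enzyme (10 nM) and compounds were first incubated 15 min at room temperature; enzyme-free buffer wells were negative controls.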
Potency is the fitted concentration of half-maximal effect.

| SMILES | activity, negative = inhibition | Potency |
| --- | --- | --- |
| Nc1c(N(CCC2=CCCCC2)C(=O)Cc2ccccc2F)c(=O)[nH]c(=O)n1Cc1ccccc1 | inactive: 14.3% | – |
| COC(=O)c1sc(NC(=O)COc2cccnc2[N+](=O)[O-])c(C(=O)OC)c1C | – | inconclusive: 28.2 µM [inhibitor, full curve] |
| O=C(O)CCNc1cc(N2CCN(C(=O)c3ccco3)CC2)c2noc3c2c1C(=O)c1ccccc1-3 | – | inconclusive: 3.16 µM [inhibitor, full curve, poor fit] |
| COc1ccc(C(=O)COC(=O)c2cc(C)no2)c(OC)c1 | – | active: 50.1 µM |
| Cc1nn2c(=O)cc(COC(=O)c3ccccc3NC(=O)C(C)C)nc2s1 | inactive: 13.3% | – |
| O=C(CN1CCCC1)Nc1c2c(nc3ccccc13)N(Cc1ccccc1)CC2 | – | inconclusive: 56.2 µM [inhibitor, partial curve, poor fit] |
| COc1cc(C(=O)Nc2cccc(OCc3cc(=O)n4c(C)csc4n3)c2)cc(OC)c1OC | inactive: 23.9% | – |
| COc1ccc(CN2C(=O)COc3ccccc32)cc1 | – | inconclusive: 31.6 µM [inhibitor, single point] |
| O=c1ccn([C@@H]2O[C@H](CNS(=O)(=O)C3CC3)[C@@H](O)[C@H]2O)c(=O)[nH]1 | inactive: -6.65% | – |
| O=C(CSc1ccccn1)Nc1ccc(N2CCOCC2)cc1 | inactive: 136% | – |
| CNC(=O)CSc1nc2cc(S(=O)(=O)Nc3ccccc3OC)ccc2o1 | – | inconclusive: 20 µM [inhibitor, single point] |
| O=C(COC(=O)/C=C/c1cccc([N+](=O)[O-])c1)Nc1ccc(Cl)cn1 | – | inconclusive: 2.24 µM [inhibitor, full curve] |
| COc1ccc(C2=NN(Cc3ccccc3)C3C(=O)NC(=O)C23)cc1 (stereo not drawn) | – | inconclusive: 79.4 µM [inhibitor, partial curve] |
| COc1ccc([C@H]2[C@H](C(=O)OC(C)(C)C)N3N=Cc4ccccc4C3C23C(=O)c2ccccc2C3=O)c(OC)c1 (stereo partly drawn) | – | inconclusive: 28.2 µM [inhibitor, partial curve] |
| CCc1ccc(Cn2c(CNS(=O)(=O)c3ccc(Cl)s3)nc3cccnc32)cc1 | inactive: 5.7% | – |
| Cc1cc(C(=O)CSCCCn2c(=O)[nH]c3ccccc32)c(C)n1C | – | inconclusive: 56.2 µM [inhibitor, partial curve, poor fit] |
| CNS(=O)(=O)c1ccc(NC(=O)c2ccc(Cl)cc2Cl)cc1 | – | inconclusive: 89.1 µM [inhibitor, single point] |
| Cc1ccc(S(=O)(=O)C(C#N)c2nc3ccccc3nc2N2CC(C)OC(C)C2)cc1C (stereo not drawn) | – | inconclusive: 0.891 µM [inhibitor, full curve, poor fit] |
| Cc1ccc2c(c1)C/C(=C/c1ccc(N(C)C)cc1)C2=O | inactive: -9.08% | – |
| COc1ccc(/C=N/Nc2nnc(C)n2N)cc1OC | – | active: 11.2 µM |
| CCc1nnc(NC(=O)CN2CCN(CC)CC2)s1 | – | inconclusive: 25.1 µM [inhibitor, single point] |
| CCCCC(C(=O)NC1CCCC1)N(C(=O)c1snc(C(N)=O)c1N)c1ccc(OCC)cc1 (stereo not drawn) | inactive: 95.8% | – |

Looked up above.
In activity, negative = inhibition, CCc1ccc(Cn2c(CNS(=O)(=O)c3ccc(Cl)s3)nc3cccnc32)cc1 has the entry inactive: 5.7%
In activity, negative = inhibition, COc1cc(C(=O)Nc2cccc(OCc3cc(=O)n4c(C)csc4n3)c2)cc(OC)c1OC has the entry inactive: 23.9%
In activity, negative = inhibition, Nc1c(N(CCC2=CCCCC2)C(=O)Cc2ccccc2F)c(=O)[nH]c(=O)n1Cc1ccccc1 has the entry inactive: 14.3%

Following part.

| SMILES | activity, negative = inhibition | Potency |
| --- | --- | --- |
| CN1CCc2cc(NC(=O)Nc3cccnc3)ccc21 | – | inconclusive: 35.5 µM [inhibitor, single point] |
| COc1cccc(CNC(=O)c2cccc(NC(=O)c3nsc4ccccc34)c2)c1 | – | inconclusive: 89.1 µM [inhibitor, single point] |
| CS(=O)(=O)N1CCN(c2ccccc2NC(=O)CSc2ccc(Cl)cc2)CC1 | – | inconclusive: 39.8 µM [inhibitor, single point] |
| Cc1cc(Br)ccc1OCCNCc1ccccc1 | inactive: -2.37% | – |
| O=C1CCCC(O)=C1Sc1cc(Cl)c(Cl)cc1Cl | – | inconclusive: 89.1 µM [inhibitor, single point] |
| O=C(CSc1nnc(Cc2ccccc2)n1Cc1ccccc1)NCc1ccco1 | – | inconclusive: 11.2 µM [inhibitor, full curve, poor fit] |
| O=C(c1[nH]ncc1[N+](=O)[O-])N1CCOCC1 | inactive: -0.232% | – |
| Cc1ccc(C(=O)OCC(=O)N2c3ccccc3NC(=O)C2(C)C)cc1S(=O)(=O)N1CCCCC1 | – | inconclusive: 56.2 µM [inhibitor, partial curve, poor fit] |
| COc1cc(Br)cc(/C=C/c2ccc3cccc(O)c3n2)c1O | – | inconclusive: 70.8 µM [inhibitor, single point] |
| O=C(O)CN1C(=O)/C(=C\c2cc(Br)ccc2OCc2ccc(Cl)cc2Cl)SC1=S | – | inconclusive: 7.94 µM [inhibitor, full curve, poor fit] |
| O=C(CSc1nnc(C2CC2)n1Cc1ccco1)NCC(F)(F)F | – | inconclusive: 89.1 µM [inhibitor, partial curve, poor fit] |
| COc1cc(C(=O)Nc2scc(-c3ccc(Br)cc3)c2C(=O)O)cc(OC)c1OC | inactive: -17.9% | – |
| Cc1ccccc1CNC(=O)Cn1cc2c(n1)-c1c(oc(C(=O)N3CCCC3)c1C)CC2 | – | inconclusive: 31.6 µM [inhibitor, partial curve, poor fit] |
| CC1(c2ccccc2)NC(=O)N(CC(=O)NC(=O)NCc2ccco2)C1=O (stereo not drawn) | – | inconclusive: 12.6 µM [inhibitor, full curve] |
| CCOc1ccc(NC(=O)Cn2c(=O)n(Cc3ccccc3)c(=O)c3c4c(sc32)CN(C(C)=O)CC4)cc1 | inactive: 30.4% | – |
| Cc1ccc(NC(=O)CN2C(=O)COc3ccc(S(=O)(=O)N4CCOCC4)cc32)c(Cl)c1 | – | inconclusive: 89.1 µM [inhibitor, single point] |
| O=C(Nc1cccnc1)C1CC(c2ccccc2O)=NO1 (stereo not drawn) | – | inconclusive: 89.1 µM [inhibitor, partial curve, poor fit] |
| O=Cc1ccc(CS)cc1 | inactive: 5.29% | – |
| COc1ccc(CCNC(=O)COC(=O)CSc2ccc([N+](=O)[O-])cc2)cc1OC | – | inconclusive: 89.1 µM [inhibitor, single point] |
| CN1CCN(c2cc(N3CCN(C(=O)c4ccco4)CC3)c3c4c(onc24)-c2ccccc2C3=O)CC1 | – | inconclusive: 20 µM [inhibitor, full curve] |
| CC(C)(C)NC(=O)CCSc1nnc(-c2ccco2)o1 | inactive: 0.893% | – |
